Experimental data from PubChem BioAssay AID624291 (National Center for Advancing Translational Sciences (NCATS), 2012).
In all, about 350,000 compounds went through this assay and about 220 (0.063%) were called active. This list was built around the results that the source calls inconclusive (neither active nor inactive); the mix of calls is not that of the screen. The call rests on the fitted dose curve; in most records, active means well fitted activation curve with a large enough effect; inconclusive means small, poorly fitted or top-dose-only effect; inactive means no such curve, though single readings can be large or run the other way. Potencies of inconclusive entries are doubtful fits and often do not repeat.

Experiment: qHTS for Activators of Integrin-Mediated Alleviation for Muscular Dystrophy; further: nearly all actives have a fitted effect of over 60% in size;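 on activation: 100% = response of the positive control SU9516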
Settings: alpha7betagal myoblasts, beta-gal FDG fluorescence, 48 h; activation: at 38.3 µM (top of the series)
Method in brief: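 alpha7betagal+/- myoblasts (passage 13, 250/well) treated 48 h at 37C with compounds at 1:260 dilution of DMSO stock. Lysed, then beta-galactosidase activity read as FDG fluorescence (ex 480/em 540) after 30 min, with pre-read for autofluorescence.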
Potency means the concentration at half of the fitted maximal effect.

Potency, inconclusive:
O=C(Nc1cc(Cl)ccc1N1CCOCC1)c1ccc(Br)o1 4.47 µM [activator, single point]
CCN1CCN(c2cc(C)c3cc(NC(=S)N(CC)CC)ccc3n2)CC1 3.55 µM [activator, single point]
CCCCC(=O)Oc1ccccc1C1SCc2cc(C)c(C)cc2CS1 17.8 µM [activator, partial curve, poor fit]
CCOC(=O)c1ccc(-c2ccc(/C=C(\C#N)C(=O)NCc3cccs3)o2)cc1 10 µM [activator, single point]
Cc1ccc(S(=O)(=O)c2nc(C)c3c(n2)CCC3)cc1 12.6 µM [activator, partial curve, poor fit]
COc1ccccc1NCC(=O)c1ccc(C)c(C)c1 2.51 µM [activator, partial curve, poor fit]
CC(=O)N/C(=C\c1ccc(F)cc1)C(=O)NC(C(=O)O)C(C)C (centres undefined) 3.55 µM [activator, partial curve, poor fit]
C=CCn1c(SCC(=O)Nc2ncc(Cc3cc(Cl)ccc3Cl)s2)nnc1-c1ccncc1 8.91 µM [activator, partial curve, poor fit]
CCOc1ccc(NC(=O)c2cccc(NC(=O)c3ccccc3)c2)cc1 7.08 µM [activator, partial curve, poor fit]
O=C(O)CCCC(=O)Nc1ccc(-n2ccc(C(F)(F)F)n2)cc1 0.447 µM [activator, partial curve, poor fit]
CCOCCCNC(=O)c1cc(Cl)c(NC(=O)C2=C(C)OCCS2)cc1OC 5.01 µM [activator, single point]
COC(=O)c1ccc(NC(=O)CCNS(=O)(=O)c2cccc3nonc23)cc1 0.447 µM [activator, full curve, poor fit]
CCOc1ccc(NC(=O)c2ccc(CSc3nnnn3C)cc2)cc1 4.47 µM [activator, single point]
N#Cc1ccc(S(=O)(=O)NCC(=O)OCC(=O)NCCc2ccccc2)cc1 12.6 µM [activator, single point]
CCN(CC)C(=O)C(=O)Nc1cccc(Br)c1 28.2 µM [activator, single point]
COc1ccc(Cl)cc1S(=O)(=O)N1CCCC(C(=O)NCc2ccccc2)C1 (centres undefined) 2.82 µM [activator, single point]
COc1ccc(-n2nc(C(=O)NCC(=O)N3CCCCCC3)c3ccccc3c2=O)cc1 28.2 µM [activator, single point]
O=c1c2cc(F)ccc2[nH]c(=S)n1Cc1ccc(F)cc1 1.12 µM [activator, partial curve, poor fit]
O=C(CSc1nnc(COc2cccc3cccnc23)o1)N1CCN(C(=O)c2ccco2)CC1 15.8 µM [activator, single point]
N=c1n(CCN2CCCCC2)c2ccccc2n1CC(O)c1ccco1 (centres undefined) 28.2 µM [activator, single point]
CC1(C)Cc2c(sc(NC(=O)C(=O)N3CCOCC3)c2C(N)=O)CO1 3.55 µM [activator, single point]
CN(C(=O)c1cc2ccccc2cc1O)C1CCCCC1 5.01 µM [activator, single point]
CC(C)c1ccc(NC2=CC(=O)CC(C)(C)C2)cc1 7.94 µM [activator, partial curve, poor fit]
CC1CCCC(NC(=O)COC(=O)CCc2ccccc2)C1C (centres undefined) 1.41 µM [activator, partial curve, poor fit]
CCN(Cc1cc(=O)oc2cc(C)ccc12)c1ccccc1 5.01 µM [activator, single point]
CNC(=O)COc1ccc(S(=O)(=O)Nc2ccc(C)cc2)cc1 5.01 µM [activator, single point]
O=C(O)c1ccc(-n2cc(C(=O)c3ccccc3O)cn2)cc1 3.16 µM [activator, partial curve, poor fit]
C#CC[N+](CC)(CC)CC#Cc1ccccc1 5.01 µM [activator, full curve, poor fit]
CCOC(=O)c1c(NC(=S)Nc2ccccc2)sc(C)c1C 3.16 µM [activator, single point]
COc1ccc(Cl)cc1NC(=O)COC(=O)Cc1cc(OC)c(OC)c(OC)c1 2.24 µM [activator, full curve, poor fit]
CC(C)(C)C(=O)Nc1cc2nn(-c3ccccc3)nc2cc1Cl 5.62 µM [activator, partial curve, poor fit]
COc1ccccc1NC(=O)NCC1(N(C)C)CCCCC1 0.447 µM [activator, full curve, poor fit]
COc1ccc(OC)c2c1sc(=NC(=O)C1CC1)n2C 0.891 µM [activator, full curve, poor fit]
Cn1cccc1-c1nc2ccc(NC(=O)c3ccco3)cc2[nH]1 2 µM [activator, full curve, poor fit]
O=S(=O)(NCCc1nnc2ccc(SCc3cccnc3)nn12)c1ccccc1 12.6 µM [activator, single point]
Cn1cc(C(=O)NS(=O)(=O)Nc2ccc(Br)cn2)c2ccccc21 5.01 µM [activator, partial curve, poor fit]
CC(Nc1ccc(Br)cn1)c1cc(Cl)ccc1O (centres undefined) 28.2 µM [activator, partial curve, poor fit]
Cn1c(=O)c(=O)n(C)c2cc(N3CCOCC3)c(NS(=O)(=O)c3ccc(F)c(Cl)c3)cc21 4.47 µM [activator, partial curve, poor fit]
CCC(=O)Nc1ccc(Cl)c(NC(=O)c2cccnc2)c1 2.24 µM [activator, full curve, poor fit]
O=[N+]([O-])c1ccccc1Nc1nc(-c2cccnc2)cs1 31.6 µM [activator, single point]
Cc1cccc(-n2c(-c3ccncc3)n[nH]c2=S)c1C 0.447 µM [activator, full curve, poor fit]
COc1cc(/C=N/Nc2ccc(C)cc2)cc(Br)c1O 28.2 µM [activator, single point]
Cc1ccc(NC(=O)COC(=O)Cn2cnc3c2c(=O)n(C)c(=O)n3C)cc1Cl 2.51 µM [activator, partial curve, poor fit]
CCCCn1c(SCC(=O)NC2CC2)nc2ccccc2c1=O 12.6 µM [activator, single point]
CC(C)N(Cc1nnc(-c2ccccc2Br)o1)C(=O)c1cc(Cl)nc2ccccc12 3.16 µM [activator, single point]
ON1C(c2ccccc2C(F)(F)F)N(O)[C@H]2CCCC[C@H]21 (some centres undefined) 31.6 µM [activator, single point]

In the list so far, 2 contain a CF3 group.
Potency, inconclusive:
O=C(O)CCCC(=O)Nc1ccc(-n2ccc(C(F)(F)F)n2)cc1 0.447 µM [activator, partial curve, poor fit]
ON1C(c2ccccc2C(F)(F)F)N(O)[C@H]2CCCC[C@H]21 (some centres undefined) 31.6 µM [activator, single point]

2 compounds picked at random from the list so far, as already listed:
Potency, inconclusive:
CC1CCCC(NC(=O)COC(=O)CCc2ccccc2)C1C (centres undefined) 1.41 µM [activator, partial curve, poor fit]
ON1C(c2ccccc2C(F)(F)F)N(O)[C@H]2CCCC[C@H]21 (some centres undefined) 31.6 µM [activator, single point]

Next part.

activation, inactive:
Cc1cccc(NC(=O)NCCc2ccc(Cl)cc2)c1 21%
O=C(N/N=C/c1ccc(O)c(O)c1)c1cccc(S(=O)(=O)N2CCCC2)c1 0.351%
CCC(c1nnnn1CCc1ccccc1)N(Cc1ccco1)Cc1cc2c(C)ccc(C)c2[nH]c1=O (centres undefined) 0.144%
Cc1ccc(NS(=O)(=O)c2ccc(CCC(=O)O)cc2)cc1 -11%
CC(=O)c1ccc(C)cc1OC(=O)c1cccc(F)c1 -5.52%
S=C1SCN(Cc2ccccc2)CN1Cc1ccco1 15.1%
O=C(C1COc2ccccc2O1)N1CCN(S(=O)(=O)c2ccccc2)CC1 (centres undefined) 25.7%
COC(=O)c1cccc(Nc2c3c(nc4ccccc24)CCC3)c1 6.16%
CCc1cc(C(=O)N/N=C/c2ccc(OC)cc2)c2ccccc2n1 0.694%
CCC(NS(=O)(=O)c1cnn(CC)c1)c1ccccc1 (centres undefined) 16.9%
CC(C)(C)N1C(=O)c2ccc(C(=O)NCc3ccco3)cc2C1=O -5.7%
Cc1ccc(-n2nnc3c(=O)n(Cc4cccc(C)c4)cnc32)cc1 21.4%
COc1ccc(C(C)(C)C)cc1NC(=S)NCCN1CCOCC1 -19.2%
Cc1ccc(CN2C(=O)C(Cc3ccccc3)Nc3ncnc(N4CCCCC4)c32)cc1 (centres undefined) -7.64%
CC1=NN(c2ccc(Br)cc2)C(=O)/C1=C/c1cccs1 7.97%
CN(C(=O)c1ccc2c(c1)SC1=NS(=O)(=O)CCN12)C(c1ccccc1)c1ccccc1 10.9%
COc1ccc(/C(C)=N/OC/C(O)=C(\C#N)c2nc3ccccc3[nH]2)cc1OC -4.79%
Cc1ccc(CNC(=O)C2CCC(CNc3nc(=S)[nH]c4ccccc34)CC2)cc1 (centres undefined) 0%
Nn1c(SCC(=O)NCCc2ccc(F)cc2)nnc1C1CCCCC1 -5.78%
COc1cccc(/C=N/Nc2cc(-n3nc(C)cc3-c3ccccc3)ncn2)c1O -22%
Cc1ccc(C=Nc2ccccc2C(=O)Nc2ccccc2)cc1 12.4%
O=C(CCCN1C(=O)/C(=C/c2ccc(F)cc2)SC1=S)NC1CCS(=O)(=O)C1 (centres undefined) -50.8%
CCOC(=O)C(C(C)=O)c1c(Br)c(O)c(O)c2c(C(=O)c3ccc(C)cc3)coc12 (centres undefined) -52.8%
